Assay results as given in paper PMC6469404.
No constants are given. Whether binding was seen depends on the method and setting. In cells and extracts the contact can be indirect. Sequences can lack the tags named with a protein.

Target: T1, Mac1-TAP (S. cerevisiae) (UniProt P35192)
T1 sequence: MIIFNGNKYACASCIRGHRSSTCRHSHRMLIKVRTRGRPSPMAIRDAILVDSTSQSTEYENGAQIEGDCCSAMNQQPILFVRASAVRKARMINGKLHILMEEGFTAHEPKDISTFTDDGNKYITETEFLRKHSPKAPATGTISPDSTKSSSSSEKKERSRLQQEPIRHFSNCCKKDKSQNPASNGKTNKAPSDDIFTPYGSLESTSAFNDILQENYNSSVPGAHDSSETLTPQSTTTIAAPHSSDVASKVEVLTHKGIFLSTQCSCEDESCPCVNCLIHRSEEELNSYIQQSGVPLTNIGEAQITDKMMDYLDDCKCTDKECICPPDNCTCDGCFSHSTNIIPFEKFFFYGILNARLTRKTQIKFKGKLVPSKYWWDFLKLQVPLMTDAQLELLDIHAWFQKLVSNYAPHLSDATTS
Assay: pull-down; calmodulin affinity purification coupled to western blot (AP-WB): TAP-tagged interactor as bait on calmodulin sepharose beads, galactose-induced Wsc1-HA as prey, yeast lysate in CaM-IPLB with 1% Triton X-100, 2 hr at 4°

B1: Wsc1-HA (protein, UniProt P54867 22-378)
chain: YEYVNCFSSLPSDFSKADSYNWQSSSHCNSECSAKGASYFALYNHSECYCGDTNPSGSESTSSSCNTYCFGYSSEMCGGEDAYSVYQLDSDTNSNSISSSDSSTESTSASSSTTSSTTSSTTSTTSSTTSSTTSSMASSSTVQNSPESTQAAASISTSQSSSTVTSESSLTSDTLATSSTSSQSQDATSIIYSTTFHTEGGSTIFVTNTITASAQNSGSATGTAGSDSTSGSKTHKKKANVGAIVGGVVGGVVGAVAIALCILLIVRHINMKREQDRMEKEYQEAIKPVEYPDKLYASSFSSNHGPSSGSFEEEHTKGQTDINPFDDSRRISNGTFINGGPGGKNNVLTVVNPDEAD
In the case of B1, the binding is reported as “no binding”.
